# From PubChem BioAssay AID328 (DTP/NCI, 2004)
# The list does not hold the whole screen: it gathers tests that were run many times, whatever their T/C, doses with no T/C, and many T/C values between a quarter and a half above the control. Other doses and runs of a compound stand elsewhere. T/C is the treated group as % of the vehicle group. Some entries give survivors of the animals treated and no T/C: the source holds a T/C of zero for them, seemingly a mark for toxic or unscored doses. Some survivor counts are full or nearly so, which does not show that the dose was tolerated: survival well below the control is almost never listed, so the zero probably covers shortened survival too. Counts of survivors are from the toxicity check (mostly the fifth day) where no day follows; animals may have died later. Schedules are NCI's codes, taken here to give the interval after Q, in days (D) or hours (H), and the number of doses after X. For survival time, the PubChem record calls one and a half times the control and up active, and a quarter to a half above the control has no call in these data; cut-offs in other NCI protocols can differ. Signs of the kind (2×) count equal records among those shown. Some entries were tested several times; the results are listed from low to high. Some T/C values carry the count of animals alive at the toxicity check (mostly the fifth day); where none is given, no animal had died by that day.
# Test system: BDF1 mice, P388 leukemia ip, median survival T/C
# Test: NCI In Vivo Anticancer Drug Screen. Data for tumor model P388 Leukemia (intraperitoneal) in B6D2F1 (BDF1) mice
# Conditions: T/C endpoint: median survival time, higher T/C = longer survival
# In short: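 Compound-treated tumour-bearing mice were compared with vehicle-treated controls. Survival was recorded, and the value is the treated-group measurement divided by the control-group measurement (T/C).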
# [1] = dose: 200.0 mg/kg/injection, schedule: Q04DX003 (ip), vehicle: saline
# [2] = dose: 400.0 mg/kg/injection, schedule: Q01DX009 (ip), vehicle: saline with Tween-80
# [3] = dose: 200.0 mg/kg/injection, schedule: Q01DX009 (ip), vehicle: Klucel (hydroxypropylcellulose) (HPC)
smiles,measurement,setting,value
CC(C)=CCC(OC(=O)C=C(C)C)C1=CC(=O)c2c(O)ccc(O)c2C1=O (stereo unspecified),survivor count,"dose: 5.0 mg/kg/injection, schedule: Q01DX009 (ip), vehicle: carboxymethylcellulose (CMC)",2 of 6
same,survivor count,"dose: 10.0 mg/kg/injection, schedule: Q01DX009 (ip), vehicle: carboxymethylcellulose (CMC)",0 of 6
same,survivor count,"dose: 12.5 mg/kg/injection, schedule: Q01DX009 (ip), vehicle: water",7 of 10
same,T/C,"dose: 12.5 mg/kg/injection, schedule: Q04DX003 (ip), vehicle: water",127 % of control
same,survivor count,"dose: 25.0 mg/kg/injection, schedule: Q01DX009 (ip), vehicle: water",7 of 10
same,T/C,"dose: 25.0 mg/kg/injection, schedule: Q04DX003 (ip), vehicle: water",136 % of control (2×)
same,survivor count,"dose: 50.0 mg/kg/injection, schedule: Q04DX003 (ip), vehicle: water",3 of 10
same,survivor count,"dose: 100.0 mg/kg/injection, schedule: Q04DX003 (ip), vehicle: water",1 of 10
COc1ccc(CNCCO)cc1,survivor count,[1],6 of 6
O=C(CC(C(=O)c1ccccc1)N1CC1)c1ccccc1 (stereo unspecified),survivor count,"dose: 200.0 mg/kg/injection, schedule: Q04DX003 (ip), vehicle: saline with Tween-80",3 of 6
COCCc1ccncc1,survivor count,[2],1 of 6
COc1ccc(NC(=O)N(CCCl)N=O)cc1OC,T/C,"dose: 1.0 mg/kg/injection, schedule: Q04DX003 (ip), vehicle: saline with Tween-80",137 % of control
CCCCCCCCCC(=O)CCCCCCC,T/C,"dose: 200.0 mg/kg/injection, schedule: Q04DX003 (ip), vehicle: other",125 % of control
same,T/C,"dose: 266.0 mg/kg/injection, schedule: Q04DX003 (ip), vehicle: other",127 % of control
same,T/C,"dose: 400.0 mg/kg/injection, schedule: Q04DX003 (ip), vehicle: other",130 % of control
O=C(O)COc1ccc(Cl)cc1Cl,survivor count,"dose: 100.0 mg/kg/injection, schedule: Q01DX009 (ip), vehicle: saline with Tween-80",4 of 6
O=C(/C=C/c1cccc(Cl)c1)c1ccccc1,T/C,"dose: 150.0 mg/kg/injection, schedule: Q01DX009 (ip), vehicle: Klucel (hydroxypropylcellulose) (HPC)",126 % of control
same,T/C,[3],126 % of control
same,survivor count,"dose: 300.0 mg/kg/injection, schedule: Q01DX009 (ip), vehicle: Klucel (hydroxypropylcellulose) (HPC)",5 of 6
COC(=O)c1cc(=O)n(-c2ccccc2C(F)(F)F)c(SC)n1,T/C,"dose: 200.0 mg/kg/injection, schedule: Q04DX003 (ip), vehicle: Klucel (hydroxypropylcellulose) (HPC)",140 % of control
COc1ccc2c(Nc3ccc(NS(C)(=O)=O)cc3)c3ccccc3nc2c1,T/C,"dose: 0.44 mg/kg/injection, schedule: Q01DX009 (ip), vehicle: saline with Tween-80",144 % of control
same,survivor count,"dose: 100.0 mg/kg/injection, schedule: Q04DX003 (ip), vehicle: saline",6 of 6
same,survivor count,[1],6 of 6
same,survivor count,"dose: 400.0 mg/kg/injection, schedule: Q04DX003 (ip), vehicle: saline",4 of 6
CN(C)c1ccc(C(=O)c2ccc(N(C)C)cc2)cc1,T/C,"dose: 100.0 mg/kg/injection, schedule: Q01DX009 (ip), vehicle: Klucel (hydroxypropylcellulose) (HPC)",127 % of control [5 of 6 alive]
same,T/C,[3],131 % of control
same,T/C,"dose: 265.0 mg/kg/injection, schedule: Q01DX009 (ip), vehicle: saline with Tween-80",135 % of control
same,T/C,"dose: 400.0 mg/kg/injection, schedule: Q01DX009 (ip), vehicle: Klucel (hydroxypropylcellulose) (HPC)",146 % of control [5 of 6 alive]
same,T/C,[2],148 % of control
same,T/C,"dose: 400.0 mg/kg/injection, schedule: Q04DX003 (ip), vehicle: saline with Tween-80",127 and 135 % of control
same,T/C,"dose: 600.0 mg/kg/injection, schedule: Q01DX009 (ip), vehicle: saline with Tween-80",144 % of control
same,T/C,"dose: 600.0 mg/kg/injection, schedule: Q04DX003 (ip), vehicle: saline with Tween-80",140 % of control
NC(=O)Oc1cccc(OC(N)=O)c1,T/C,"dose: 200.0 mg/kg/injection, schedule: Q04DX003 (ip), vehicle: water",134 % of control
Cc1c(N)cc([N+](=O)[O-])c(C)c1[N+](=O)[O-],survivor count,"dose: 200.0 mg/kg/injection, schedule: Q01DX009 (ip), vehicle: saline with Tween-80",3 of 6
CC1(C)CS(=O)(=O)CC1=O,survivor count,"dose: 200.0 mg/kg/injection, schedule: Q01DX001 (ip), vehicle: Klucel (hydroxypropylcellulose) (HPC)",3 of 6
same,survivor count,"dose: 400.0 mg/kg/injection, schedule: Q01DX001 (ip), vehicle: Klucel (hydroxypropylcellulose) (HPC)",2 of 6
